Assay results taken from article PMC12639696.
These are yes or no findings as the source states them, for the method shown. Binding seen in cells or lysates may run through a third protein. Some binding calls cover weakened binding; strength is not graded here.

Protein sequences, listed by entry. Tags and fused reporters are not part of them.
UniProt Q80YE7: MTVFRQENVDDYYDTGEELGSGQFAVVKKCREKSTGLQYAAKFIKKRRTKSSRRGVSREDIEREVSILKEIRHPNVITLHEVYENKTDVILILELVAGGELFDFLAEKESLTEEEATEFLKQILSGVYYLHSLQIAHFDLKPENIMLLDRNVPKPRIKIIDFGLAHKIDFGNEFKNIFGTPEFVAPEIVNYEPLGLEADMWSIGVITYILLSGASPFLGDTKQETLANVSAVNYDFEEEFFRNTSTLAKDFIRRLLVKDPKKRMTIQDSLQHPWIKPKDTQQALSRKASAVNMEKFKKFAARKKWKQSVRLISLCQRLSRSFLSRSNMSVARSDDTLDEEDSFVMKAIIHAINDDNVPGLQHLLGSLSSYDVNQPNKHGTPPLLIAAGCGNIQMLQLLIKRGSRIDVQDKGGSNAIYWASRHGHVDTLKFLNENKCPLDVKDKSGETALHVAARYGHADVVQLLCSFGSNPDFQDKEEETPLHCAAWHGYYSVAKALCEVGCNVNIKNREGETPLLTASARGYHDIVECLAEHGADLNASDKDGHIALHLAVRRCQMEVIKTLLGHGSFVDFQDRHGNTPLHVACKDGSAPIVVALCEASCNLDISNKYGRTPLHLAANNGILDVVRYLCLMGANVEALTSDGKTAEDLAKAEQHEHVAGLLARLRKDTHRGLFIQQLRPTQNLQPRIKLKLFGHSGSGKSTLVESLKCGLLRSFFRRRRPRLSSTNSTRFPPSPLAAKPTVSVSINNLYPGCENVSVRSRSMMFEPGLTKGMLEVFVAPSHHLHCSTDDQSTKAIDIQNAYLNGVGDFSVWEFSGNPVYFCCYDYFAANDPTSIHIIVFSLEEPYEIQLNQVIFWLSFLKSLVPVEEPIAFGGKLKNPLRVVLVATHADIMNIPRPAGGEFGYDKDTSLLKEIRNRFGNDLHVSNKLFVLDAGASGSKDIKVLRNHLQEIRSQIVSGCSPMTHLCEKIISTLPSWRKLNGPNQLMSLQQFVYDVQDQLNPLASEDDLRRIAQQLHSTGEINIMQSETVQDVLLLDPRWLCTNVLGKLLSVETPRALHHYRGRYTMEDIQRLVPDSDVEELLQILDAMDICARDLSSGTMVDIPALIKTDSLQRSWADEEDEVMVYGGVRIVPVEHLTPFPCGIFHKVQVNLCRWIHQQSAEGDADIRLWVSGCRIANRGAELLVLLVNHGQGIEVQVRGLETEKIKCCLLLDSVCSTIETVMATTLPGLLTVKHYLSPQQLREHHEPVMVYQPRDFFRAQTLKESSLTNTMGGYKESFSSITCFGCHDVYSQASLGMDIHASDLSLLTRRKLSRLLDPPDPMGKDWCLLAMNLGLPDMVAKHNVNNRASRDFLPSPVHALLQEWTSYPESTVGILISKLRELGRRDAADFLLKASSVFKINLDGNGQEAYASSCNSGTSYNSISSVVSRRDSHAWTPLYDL

Columns and labels:
[1] = target: T1, endogenous SENP1 (N2a cells and mouse brain) (mouse (endogenous in N2a and mouse brain)) (UniProt P59110); assay: co-IP; endogenous proteins in N2a cell lysate; indicated antibodies, protein A/G agarose, NP-40 lysis buffer; immunoblot
T1 sequence: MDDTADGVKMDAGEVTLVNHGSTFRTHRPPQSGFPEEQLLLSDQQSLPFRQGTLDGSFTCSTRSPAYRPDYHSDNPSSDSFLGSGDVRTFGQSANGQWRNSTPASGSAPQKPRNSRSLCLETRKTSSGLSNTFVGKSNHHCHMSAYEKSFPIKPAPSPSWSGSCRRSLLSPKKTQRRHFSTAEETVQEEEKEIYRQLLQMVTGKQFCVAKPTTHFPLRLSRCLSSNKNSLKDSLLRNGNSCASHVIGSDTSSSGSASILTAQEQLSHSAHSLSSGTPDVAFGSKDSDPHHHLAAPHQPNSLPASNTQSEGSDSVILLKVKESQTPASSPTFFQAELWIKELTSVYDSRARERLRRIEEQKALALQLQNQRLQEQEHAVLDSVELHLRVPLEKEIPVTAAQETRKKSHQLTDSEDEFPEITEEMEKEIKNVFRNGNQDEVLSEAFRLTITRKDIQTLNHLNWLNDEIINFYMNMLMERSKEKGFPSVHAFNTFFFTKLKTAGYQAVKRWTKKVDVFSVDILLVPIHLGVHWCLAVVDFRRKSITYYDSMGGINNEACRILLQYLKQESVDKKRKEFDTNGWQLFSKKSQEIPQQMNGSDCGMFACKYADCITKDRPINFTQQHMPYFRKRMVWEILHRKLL

[2] = target: T1, endogenous SENP1 (N2a cells and mouse brain) (mouse (endogenous in N2a and mouse brain)); assay: co-IP; endogenous proteins in mouse brain tissue; indicated antibodies, protein A/G agarose; immunoblot

Q: “endogenous DAPK1 (N2a cells and mouse brain) (from UniProt Q80YE7 1-1442) (enzyme)” was tested. Which binding [1] did it give?
A: binds

Q: What about the binding [2] of the same substance?
A: binds
